According to paper PMC3323571:
Where a chain is given by its changes, count along the chain named. No constants are given. Whether binding was seen depends on the method and setting. In cells and extracts the contact can be indirect. Some entries that bind do so weakly or less than the wild type. Where a sequence is shown, tags or fusion partners need not be part of it.

Assays:
[1] = target: T1, Flag-tagged NHERF1 E225K mutant (human) (UniProt O14745); experiment: co-IP; HeLa cells co-transfected with GFP-NPT2a and Flag-NHERF1 (wild type or mutant); Flag-NHERF1 immunoprecipitated with anti-Flag antibody, immunoprecipitates probed with anti-GFP on Western blot
T1 sequence: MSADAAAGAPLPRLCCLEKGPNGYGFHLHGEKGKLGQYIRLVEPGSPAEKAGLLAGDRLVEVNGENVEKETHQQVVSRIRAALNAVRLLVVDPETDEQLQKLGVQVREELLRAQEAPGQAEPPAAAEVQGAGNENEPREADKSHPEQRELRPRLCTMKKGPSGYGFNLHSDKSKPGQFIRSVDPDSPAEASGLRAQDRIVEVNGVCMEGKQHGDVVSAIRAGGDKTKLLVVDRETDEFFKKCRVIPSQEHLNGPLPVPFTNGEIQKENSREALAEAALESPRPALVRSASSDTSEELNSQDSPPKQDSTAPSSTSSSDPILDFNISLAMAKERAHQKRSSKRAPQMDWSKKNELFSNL

[2] = target: T2, Flag-tagged NHERF1 R153Q mutant (human) (UniProt O14745); experiment: as above
T2 sequence: T1 sequence with R153Q, K225E

binding [1]: binds
binding [2]: binds
B1: GFP-tagged NPT2a (type 2a sodium-phosphate cotransporter) (protein, UniProt Q06495 1-639)
chain: MLSYGERLGSPAVSPLPVRGGHVMRGTAFAYVPSPQVLHRIPGTSAYAFPSLGPVALAEHTCPCGEVLERHEPLPAKLALEEEQKPESRLVPKLRQAGAMLLKVPLMLTFLYLFVCSLDMLSSAFQLAGGKVAGDIFKDNAILSNPVAGLVVGILVTVLVQSSSTSTSIIVSMVSSGLLEVSSAIPIIMGSNIGTSVTNTIVALMQAGDRTDFRRAFAGATVHDCFNWLSVLVLLPLEAATGYLHHITRLVVASFNIHGGRDAPDLLKIITEPFTKLIIQLDESVITSIATGDESLRNHSLIQIWCHPDSLQAPTSMSRAEANSSQTLGNATMEKCNHIFVDTGLPDLAVGLILLAGSLVLLCTCLILLVKMLNSLLKGQVAKVIQKVINTDFPAPFTWVTGYFAMVVGASMTFVVQSSSVFTSAITPLIGLGVISIERAYPLTLGSNIGTTTTAILAALASPREKLSSAFQIALCHFFFNISGILLWYPVPCTRLPIRMAKALGKRTAKYRWFAVLYLLVCFLLLPSLVFGISMAGWQVMVGVGTPFGALLAFVVLINVLQSRSPGHLPKWLQTWDFLPRWMHSLKPLDHLITRATLCCARPEPRSPPLPPRVFLEELPPATPSPRLALPAHHNATRL
